Laboratory results reported in the supplement of paper PMC12819154, “High-throughput peptide-centric local stability assay extends protein–ligand identification to membrane proteins, tissues and bacteria” (Nature Structural & Molecular Biology, 2025).
This is one part of the list. Most values lie at the level of the controls, where differences are scatter.

Sequences of proteins named here, by UniProt entry; tags and fusion partners are left off. A change or cut given only in a name is not applied to a line headed by its entry.
UniProt Q922H9: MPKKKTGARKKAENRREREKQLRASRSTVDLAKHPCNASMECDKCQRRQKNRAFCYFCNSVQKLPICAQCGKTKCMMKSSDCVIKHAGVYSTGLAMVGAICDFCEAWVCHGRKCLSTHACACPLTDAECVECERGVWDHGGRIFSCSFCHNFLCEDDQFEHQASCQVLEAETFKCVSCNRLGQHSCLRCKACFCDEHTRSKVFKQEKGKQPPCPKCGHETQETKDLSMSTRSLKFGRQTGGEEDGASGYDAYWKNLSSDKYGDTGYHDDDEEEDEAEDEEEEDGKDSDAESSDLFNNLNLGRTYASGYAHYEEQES
UniProt Q99LB6: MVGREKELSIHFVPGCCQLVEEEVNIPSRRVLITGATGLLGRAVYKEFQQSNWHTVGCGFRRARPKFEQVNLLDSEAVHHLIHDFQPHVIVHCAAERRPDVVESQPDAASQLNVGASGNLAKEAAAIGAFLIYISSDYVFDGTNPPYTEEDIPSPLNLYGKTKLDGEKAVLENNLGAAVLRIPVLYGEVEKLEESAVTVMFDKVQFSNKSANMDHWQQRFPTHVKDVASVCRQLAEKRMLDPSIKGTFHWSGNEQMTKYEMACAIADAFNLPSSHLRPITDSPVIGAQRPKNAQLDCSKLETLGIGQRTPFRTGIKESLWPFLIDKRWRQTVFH
UniProt Q923X4: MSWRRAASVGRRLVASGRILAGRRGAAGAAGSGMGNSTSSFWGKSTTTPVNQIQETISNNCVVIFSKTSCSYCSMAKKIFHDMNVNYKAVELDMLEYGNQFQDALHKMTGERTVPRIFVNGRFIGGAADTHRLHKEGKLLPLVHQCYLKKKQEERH
UniProt Q921F4: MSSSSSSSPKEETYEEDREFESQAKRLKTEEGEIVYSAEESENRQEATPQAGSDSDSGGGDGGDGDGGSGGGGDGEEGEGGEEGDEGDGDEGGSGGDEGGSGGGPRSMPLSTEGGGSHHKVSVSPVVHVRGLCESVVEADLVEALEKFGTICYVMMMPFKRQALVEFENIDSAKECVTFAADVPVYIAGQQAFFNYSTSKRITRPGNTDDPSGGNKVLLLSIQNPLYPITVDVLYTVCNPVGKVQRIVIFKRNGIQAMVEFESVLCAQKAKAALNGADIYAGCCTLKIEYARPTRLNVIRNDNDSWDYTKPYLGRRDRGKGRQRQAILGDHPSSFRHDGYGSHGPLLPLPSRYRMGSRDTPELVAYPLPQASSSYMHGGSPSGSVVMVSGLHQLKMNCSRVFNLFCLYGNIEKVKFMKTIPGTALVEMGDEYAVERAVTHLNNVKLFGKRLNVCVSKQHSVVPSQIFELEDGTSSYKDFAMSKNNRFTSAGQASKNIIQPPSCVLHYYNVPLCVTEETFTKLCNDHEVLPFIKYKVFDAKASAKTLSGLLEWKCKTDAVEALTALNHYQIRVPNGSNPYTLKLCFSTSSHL
UniProt Q99LI2: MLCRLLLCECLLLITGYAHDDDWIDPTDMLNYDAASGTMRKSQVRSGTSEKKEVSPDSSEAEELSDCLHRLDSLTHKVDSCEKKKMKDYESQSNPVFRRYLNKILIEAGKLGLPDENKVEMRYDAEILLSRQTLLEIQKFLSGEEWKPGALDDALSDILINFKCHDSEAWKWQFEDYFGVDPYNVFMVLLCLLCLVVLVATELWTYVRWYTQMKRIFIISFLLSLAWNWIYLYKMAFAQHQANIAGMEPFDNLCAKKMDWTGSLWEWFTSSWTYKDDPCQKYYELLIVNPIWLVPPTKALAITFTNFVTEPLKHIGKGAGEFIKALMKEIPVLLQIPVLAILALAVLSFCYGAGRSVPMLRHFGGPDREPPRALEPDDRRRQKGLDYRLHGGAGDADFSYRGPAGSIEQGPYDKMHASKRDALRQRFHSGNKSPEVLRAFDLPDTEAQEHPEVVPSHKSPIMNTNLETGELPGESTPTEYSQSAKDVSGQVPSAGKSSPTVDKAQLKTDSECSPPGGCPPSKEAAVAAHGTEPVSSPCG
UniProt Q99K51: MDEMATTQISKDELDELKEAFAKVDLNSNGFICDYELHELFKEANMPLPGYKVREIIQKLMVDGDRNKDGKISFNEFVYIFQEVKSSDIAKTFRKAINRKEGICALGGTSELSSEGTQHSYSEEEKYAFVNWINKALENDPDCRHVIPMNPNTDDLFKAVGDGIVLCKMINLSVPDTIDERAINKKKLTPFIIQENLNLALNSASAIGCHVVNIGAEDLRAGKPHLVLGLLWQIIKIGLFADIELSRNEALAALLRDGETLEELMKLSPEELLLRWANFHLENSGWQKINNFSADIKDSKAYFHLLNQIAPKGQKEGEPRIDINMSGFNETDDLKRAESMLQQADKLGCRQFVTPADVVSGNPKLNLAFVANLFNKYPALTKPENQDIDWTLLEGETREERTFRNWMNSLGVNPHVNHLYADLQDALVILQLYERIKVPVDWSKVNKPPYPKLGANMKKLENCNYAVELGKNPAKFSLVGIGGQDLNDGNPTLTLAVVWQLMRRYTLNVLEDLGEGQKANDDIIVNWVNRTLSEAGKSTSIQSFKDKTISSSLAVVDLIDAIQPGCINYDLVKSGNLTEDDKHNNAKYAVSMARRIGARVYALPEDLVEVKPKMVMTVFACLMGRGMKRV
UniProt Q99JY1, whole entry: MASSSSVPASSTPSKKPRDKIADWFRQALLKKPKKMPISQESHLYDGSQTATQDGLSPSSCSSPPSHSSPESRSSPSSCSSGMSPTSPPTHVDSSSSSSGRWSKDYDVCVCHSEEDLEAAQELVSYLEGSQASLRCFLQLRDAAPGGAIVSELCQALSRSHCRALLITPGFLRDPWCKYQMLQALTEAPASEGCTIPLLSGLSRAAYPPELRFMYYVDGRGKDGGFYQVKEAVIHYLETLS
UniProt Q99JI4: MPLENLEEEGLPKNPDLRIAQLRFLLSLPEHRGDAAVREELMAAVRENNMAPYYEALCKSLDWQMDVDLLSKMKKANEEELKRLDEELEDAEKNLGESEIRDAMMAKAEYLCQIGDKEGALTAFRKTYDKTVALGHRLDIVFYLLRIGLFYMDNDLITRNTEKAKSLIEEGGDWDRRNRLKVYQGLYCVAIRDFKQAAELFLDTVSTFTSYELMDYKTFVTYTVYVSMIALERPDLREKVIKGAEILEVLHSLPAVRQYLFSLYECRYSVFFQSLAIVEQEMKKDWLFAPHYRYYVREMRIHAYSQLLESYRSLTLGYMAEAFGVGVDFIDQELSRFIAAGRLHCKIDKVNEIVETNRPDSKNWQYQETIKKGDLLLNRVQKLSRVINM
UniProt Q99KJ0: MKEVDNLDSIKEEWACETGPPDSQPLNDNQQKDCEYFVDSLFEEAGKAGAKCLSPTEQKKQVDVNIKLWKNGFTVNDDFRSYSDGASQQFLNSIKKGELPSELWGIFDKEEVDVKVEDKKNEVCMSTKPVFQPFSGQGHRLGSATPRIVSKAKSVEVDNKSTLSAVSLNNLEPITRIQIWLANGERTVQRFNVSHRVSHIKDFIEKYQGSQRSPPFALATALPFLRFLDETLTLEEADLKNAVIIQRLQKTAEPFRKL
UniProt Q921L7: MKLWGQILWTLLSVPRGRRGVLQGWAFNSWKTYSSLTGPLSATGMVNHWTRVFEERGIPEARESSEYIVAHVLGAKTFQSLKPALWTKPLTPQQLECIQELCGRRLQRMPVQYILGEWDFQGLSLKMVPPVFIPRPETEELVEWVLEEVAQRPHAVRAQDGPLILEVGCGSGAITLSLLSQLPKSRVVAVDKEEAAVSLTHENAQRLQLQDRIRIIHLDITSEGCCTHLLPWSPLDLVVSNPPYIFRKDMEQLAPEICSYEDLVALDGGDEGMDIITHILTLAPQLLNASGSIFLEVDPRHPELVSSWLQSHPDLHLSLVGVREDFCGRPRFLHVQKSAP
UniProt Q924H9: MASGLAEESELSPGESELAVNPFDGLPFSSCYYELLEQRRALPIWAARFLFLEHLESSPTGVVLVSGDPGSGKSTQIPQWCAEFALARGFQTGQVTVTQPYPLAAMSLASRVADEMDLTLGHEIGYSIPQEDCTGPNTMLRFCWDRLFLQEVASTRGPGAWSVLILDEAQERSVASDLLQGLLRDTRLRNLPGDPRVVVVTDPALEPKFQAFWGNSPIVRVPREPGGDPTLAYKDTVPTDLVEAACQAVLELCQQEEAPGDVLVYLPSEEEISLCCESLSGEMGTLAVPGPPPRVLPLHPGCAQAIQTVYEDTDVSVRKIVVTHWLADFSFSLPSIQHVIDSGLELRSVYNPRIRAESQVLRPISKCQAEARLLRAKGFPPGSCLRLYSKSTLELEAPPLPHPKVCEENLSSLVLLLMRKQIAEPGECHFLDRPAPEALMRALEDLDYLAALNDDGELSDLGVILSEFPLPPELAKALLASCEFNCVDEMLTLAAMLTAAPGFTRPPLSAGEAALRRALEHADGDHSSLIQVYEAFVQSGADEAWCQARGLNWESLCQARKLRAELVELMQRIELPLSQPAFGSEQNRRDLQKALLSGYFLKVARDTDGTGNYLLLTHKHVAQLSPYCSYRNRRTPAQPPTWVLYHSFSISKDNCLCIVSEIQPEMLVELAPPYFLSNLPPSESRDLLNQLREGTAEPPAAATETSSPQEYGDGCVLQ
UniProt Q924W5: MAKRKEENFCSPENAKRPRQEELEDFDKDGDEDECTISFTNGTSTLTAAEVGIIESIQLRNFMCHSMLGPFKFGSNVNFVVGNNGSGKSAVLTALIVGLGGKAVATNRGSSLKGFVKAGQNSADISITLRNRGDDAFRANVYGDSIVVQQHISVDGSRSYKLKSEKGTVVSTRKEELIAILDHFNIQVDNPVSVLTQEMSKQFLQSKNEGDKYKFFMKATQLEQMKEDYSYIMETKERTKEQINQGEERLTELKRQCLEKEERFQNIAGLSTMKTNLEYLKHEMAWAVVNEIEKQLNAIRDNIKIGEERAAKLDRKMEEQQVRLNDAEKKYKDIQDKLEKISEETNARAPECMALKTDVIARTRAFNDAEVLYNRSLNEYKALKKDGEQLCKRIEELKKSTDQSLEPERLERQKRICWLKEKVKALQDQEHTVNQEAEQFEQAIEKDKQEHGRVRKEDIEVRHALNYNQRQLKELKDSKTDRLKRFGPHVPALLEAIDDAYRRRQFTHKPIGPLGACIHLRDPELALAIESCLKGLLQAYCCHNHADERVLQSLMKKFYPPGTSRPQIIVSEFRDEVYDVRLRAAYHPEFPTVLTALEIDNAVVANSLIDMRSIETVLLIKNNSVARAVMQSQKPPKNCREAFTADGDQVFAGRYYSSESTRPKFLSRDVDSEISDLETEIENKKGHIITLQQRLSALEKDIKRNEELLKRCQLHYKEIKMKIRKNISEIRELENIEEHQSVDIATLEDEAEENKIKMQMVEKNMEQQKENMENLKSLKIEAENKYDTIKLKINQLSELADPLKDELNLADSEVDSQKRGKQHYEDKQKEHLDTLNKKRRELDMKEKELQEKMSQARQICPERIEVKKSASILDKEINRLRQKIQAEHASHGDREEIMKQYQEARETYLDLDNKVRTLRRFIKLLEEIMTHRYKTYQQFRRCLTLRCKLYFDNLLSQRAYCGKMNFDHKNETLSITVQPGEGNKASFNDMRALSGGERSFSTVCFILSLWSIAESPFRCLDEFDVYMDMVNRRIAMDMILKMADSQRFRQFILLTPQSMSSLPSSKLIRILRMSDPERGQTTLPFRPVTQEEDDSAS
UniProt Q99JH1: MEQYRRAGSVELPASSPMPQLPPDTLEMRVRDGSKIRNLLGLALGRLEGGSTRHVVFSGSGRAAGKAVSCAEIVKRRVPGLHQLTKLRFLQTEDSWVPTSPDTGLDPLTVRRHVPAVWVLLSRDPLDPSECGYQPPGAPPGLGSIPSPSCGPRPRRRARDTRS
UniProt Q99JR5: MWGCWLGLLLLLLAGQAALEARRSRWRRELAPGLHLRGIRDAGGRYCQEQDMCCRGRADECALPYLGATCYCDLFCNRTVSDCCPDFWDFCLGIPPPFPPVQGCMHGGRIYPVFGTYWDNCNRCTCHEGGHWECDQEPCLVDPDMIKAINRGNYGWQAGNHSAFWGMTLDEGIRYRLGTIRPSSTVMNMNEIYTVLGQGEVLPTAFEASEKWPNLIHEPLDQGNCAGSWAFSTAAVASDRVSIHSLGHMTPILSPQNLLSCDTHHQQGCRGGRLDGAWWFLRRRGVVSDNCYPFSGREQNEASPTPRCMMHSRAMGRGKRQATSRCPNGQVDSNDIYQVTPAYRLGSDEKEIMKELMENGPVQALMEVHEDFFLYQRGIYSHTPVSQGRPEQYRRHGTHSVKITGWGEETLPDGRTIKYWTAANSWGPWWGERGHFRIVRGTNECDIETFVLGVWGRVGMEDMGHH
UniProt Q99KP3: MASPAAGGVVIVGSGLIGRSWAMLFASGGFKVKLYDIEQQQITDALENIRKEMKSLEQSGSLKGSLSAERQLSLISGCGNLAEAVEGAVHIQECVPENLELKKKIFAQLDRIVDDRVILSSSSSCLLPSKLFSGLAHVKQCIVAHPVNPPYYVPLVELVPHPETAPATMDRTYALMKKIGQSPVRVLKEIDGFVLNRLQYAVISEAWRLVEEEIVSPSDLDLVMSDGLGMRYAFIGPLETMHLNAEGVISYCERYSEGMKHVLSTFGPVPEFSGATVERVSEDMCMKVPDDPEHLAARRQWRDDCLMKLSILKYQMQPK

Each target was assayed with CN[C@@H]1C[C@H]2O[C@@](C)([C@@H]1OC)n1c3ccccc3c3c4c(c5c6ccccc6n2c5c31)C(=O)NC4 [staurosporine] (assay: log2 fold change of tryptic peptide abundance, ligand vs vehicle (limited proteolysis) (log2 ratio); higher = more trypsin-susceptible (destabilized)). Settings: ligand concentration: 20 uM; sample: mouse liver crude lysate; replicate design: treated separately.

Target	log2 fold change
UniProt Q922H9 (peptide sequence: CGHETQETK, peptide start residue: 216)	-0.505
UniProt Q99LB6 (peptide sequence: VLITGATGLLGR, peptide start residue: 31)	-0.283
UniProt Q923X4 (peptide sequence: FIGGAADTHR, peptide start residue: 123)	-0.0866
UniProt Q921F4 (peptide sequence: LCFSTSSHL, peptide start residue: 583)	0.0983
UniProt Q99LI2 (peptide sequence: ALEPDDRR, peptide start residue: 373)	-0.414
UniProt Q99K51 (peptide sequence: HVIPMNPNTDDLFK, peptide start residue: 145)	-0.611
UniProt Q923E4 (peptide sequence: LSEITEKPPRPQK, peptide start residue: 499)	-0.562
UniProt Q99JY1 (peptide sequence: FMYYVDGR, peptide start residue: 213)	-0.289
UniProt Q921I2 (peptide sequence: TEQHWLK, peptide start residue: 539)	0.108
UniProt Q99JI4 (peptide sequence: PLENLEEEGLPKNPDLR, peptide start residue: 2)	-0.498
UniProt Q99JF8 (peptide sequence: EEEGQKEEEKPR, peptide start residue: 233)	-0.887
UniProt Q99J99 (peptide sequence: AQPEHIISEGR, peptide start residue: 283)	0.0791
UniProt Q922F4 (peptide sequence: ISVYYNESSSK, peptide start residue: 47)	-0.191
UniProt Q924M7 (peptide sequence: VKNTFNGKLPFLFK, peptide start residue: 86)	-0.361
UniProt Q99L88 (peptide sequence: GSGTGHPVPGVAQAPDSPAGVR, peptide start residue: 70)	-0.207
UniProt Q99KJ0 (peptide sequence: KNEVCMSTKPVFQPFSGQGHR, peptide start residue: 120)	0.312
UniProt Q925B0 (peptide sequence: AKQNPAGPGSSGGDPAAK, peptide start residue: 29)	-0.273
UniProt Q921V5 (peptide sequence: KSDALGPPLLDAEPVR, peptide start residue: 33)	-0.109
UniProt Q99KN9 (peptide sequence: SLENYHFVDEHGKDQGINIR, peptide start residue: 118)	-0.665
UniProt Q921L7 (peptide sequence: ESSEYIVAHVLGAK, peptide start residue: 63)	-0.199

An excerpt taken from the entries so far, as a working copy:
Target	log2 fold change
UniProt Q921I2 (peptide sequence: TEQHWLK, peptide start residue: 539)	0.108
UniProt Q99JI4 (peptide sequence: PLENLEEEGLPKNPDLR, peptide start residue: 2)	-0.498
UniProt Q99JF8 (peptide sequence: EEEGQKEEEKPR, peptide start residue: 233)	-0.887
UniProt Q99J99 (peptide sequence: AQPEHIISEGR, peptide start residue: 283)	0.0791
UniProt Q922F4 (peptide sequence: ISVYYNESSSK, peptide start residue: 47)	-0.191
UniProt Q924M7 (peptide sequence: VKNTFNGKLPFLFK, peptide start residue: 86)	-0.361
UniProt Q99L88 (peptide sequence: GSGTGHPVPGVAQAPDSPAGVR, peptide start residue: 70)	-0.207
UniProt Q99KJ0 (peptide sequence: KNEVCMSTKPVFQPFSGQGHR, peptide start residue: 120)	0.312
UniProt Q925B0 (peptide sequence: AKQNPAGPGSSGGDPAAK, peptide start residue: 29)	-0.273
UniProt Q921V5 (peptide sequence: KSDALGPPLLDAEPVR, peptide start residue: 33)	-0.109
UniProt Q99KN9 (peptide sequence: SLENYHFVDEHGKDQGINIR, peptide start residue: 118)	-0.665

(list continues)

Target	log2 fold change
UniProt Q924H9 (peptide sequence: VVVVTDPALEPK, peptide start residue: 197)	0.238
UniProt Q99J08 (peptide sequence: AGEMTEVLPNQR, peptide start residue: 330)	-0.227
UniProt Q99J87 (peptide sequence: RYNDALFIHDTVR, peptide start residue: 286)	-0.56
UniProt Q99LF4 (peptide sequence: GLGHQVATDALVAMEK, peptide start residue: 264)	-0.132
UniProt Q924W5 (peptide sequence: GLLQAYCCHNHADER, peptide start residue: 535)	0.203
UniProt Q922B9 (peptide sequence: GSECEFAQYTTHHILR, peptide start residue: 648)	1.04
UniProt Q99KI0 (peptide sequence: LEAPDADELPR, peptide start residue: 524)	0.26
UniProt Q99KL7 (peptide sequence: VAAEILGIK, peptide start residue: 173)	-0.319
UniProt Q920C1 (peptide sequence: ISKRMFGELHHFK, peptide start residue: 385)	-0.115
UniProt Q99L13 (peptide sequence: ILNMSSGR, peptide start residue: 242)	-0.16
UniProt Q922D4 (peptide sequence: LGSFHELLLEPPKK, peptide start residue: 313)	-0.324
UniProt Q921R7 (peptide sequence: HLSGSLWER, peptide start residue: 405)	-0.00971
UniProt Q99L90 (peptide sequence: SEDEESLAGQKR, peptide start residue: 22)	0.413
UniProt Q99J39 (peptide sequence: RAVPPTPAYELR, peptide start residue: 45)	0.393
UniProt Q99JH1 (peptide sequence: NLLGLALGR, peptide start residue: 38)	-0.317
UniProt Q99JR5 (peptide sequence: EQNEASPTPR, peptide start residue: 298)	-0.15
UniProt Q99JX7 (peptide sequence: SCMAATLR, peptide start residue: 250)	-0.464
UniProt Q99LH1 (peptide sequence: KWDAQMEEEPSNK, peptide start residue: 657)	-0.654
UniProt Q920N2 (peptide sequence: LQMDNGLIAQK, peptide start residue: 5)	0.207
UniProt Q99KP3 (peptide sequence: VSEDMCMKVPDDPEHLAAR, peptide start residue: 280)	0.218
